Literature values, collected in patent publication US20220117993A1, “Compounds Useful in HIV Therapy” (GlaxoSmithKline Intellectual Property (No. 2) Limited, priority 2018, published 2022).
Some entries share one result that the patent states for a list of compounds. At least one compound was matched to its structure with a doubt left.

System: M184V mutation
Details: M184V selected on a regimen containing 3TC/FTC; cited from earlier work

Nc1ccn([C@@H]2CS[C@H](CO)O2)c(=O)n1 [Example 3TC, lamivudine]
reduction of susceptibility by M184V mutation: > 100 fold
